# Reference: PubChem BioAssay (Tox21)
# Protein sequences, listed by entry. Tags and fused reporters are not part of them. Lines headed by an entry give the natural chain unless they say otherwise; changes in a name come on top.
# UniProt P28223, whole entry, looked up: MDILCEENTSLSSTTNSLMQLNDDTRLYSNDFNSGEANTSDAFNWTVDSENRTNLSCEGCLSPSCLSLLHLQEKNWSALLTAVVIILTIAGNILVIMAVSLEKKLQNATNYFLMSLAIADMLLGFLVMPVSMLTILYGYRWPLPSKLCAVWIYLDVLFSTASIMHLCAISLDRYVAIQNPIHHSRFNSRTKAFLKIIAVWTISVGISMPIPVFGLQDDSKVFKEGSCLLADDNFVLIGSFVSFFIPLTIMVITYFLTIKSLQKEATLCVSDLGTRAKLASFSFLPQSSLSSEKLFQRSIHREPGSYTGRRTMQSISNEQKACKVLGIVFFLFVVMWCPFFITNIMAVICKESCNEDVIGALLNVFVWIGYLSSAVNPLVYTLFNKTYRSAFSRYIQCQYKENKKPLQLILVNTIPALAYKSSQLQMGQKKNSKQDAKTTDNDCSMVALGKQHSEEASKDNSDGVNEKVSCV
# UniProt P11229: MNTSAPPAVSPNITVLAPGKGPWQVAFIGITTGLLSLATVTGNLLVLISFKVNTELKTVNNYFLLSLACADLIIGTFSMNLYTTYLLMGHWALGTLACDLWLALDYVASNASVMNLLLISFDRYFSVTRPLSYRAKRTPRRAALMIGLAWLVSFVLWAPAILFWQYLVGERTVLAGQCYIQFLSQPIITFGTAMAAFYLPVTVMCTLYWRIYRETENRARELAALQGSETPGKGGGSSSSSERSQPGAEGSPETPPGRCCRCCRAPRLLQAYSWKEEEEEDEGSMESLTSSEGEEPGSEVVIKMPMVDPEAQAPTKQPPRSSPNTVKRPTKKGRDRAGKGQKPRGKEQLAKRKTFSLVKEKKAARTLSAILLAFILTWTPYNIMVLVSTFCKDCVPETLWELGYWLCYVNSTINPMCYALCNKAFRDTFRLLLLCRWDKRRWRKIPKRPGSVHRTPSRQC
# UniProt P14416, whole entry, looked up: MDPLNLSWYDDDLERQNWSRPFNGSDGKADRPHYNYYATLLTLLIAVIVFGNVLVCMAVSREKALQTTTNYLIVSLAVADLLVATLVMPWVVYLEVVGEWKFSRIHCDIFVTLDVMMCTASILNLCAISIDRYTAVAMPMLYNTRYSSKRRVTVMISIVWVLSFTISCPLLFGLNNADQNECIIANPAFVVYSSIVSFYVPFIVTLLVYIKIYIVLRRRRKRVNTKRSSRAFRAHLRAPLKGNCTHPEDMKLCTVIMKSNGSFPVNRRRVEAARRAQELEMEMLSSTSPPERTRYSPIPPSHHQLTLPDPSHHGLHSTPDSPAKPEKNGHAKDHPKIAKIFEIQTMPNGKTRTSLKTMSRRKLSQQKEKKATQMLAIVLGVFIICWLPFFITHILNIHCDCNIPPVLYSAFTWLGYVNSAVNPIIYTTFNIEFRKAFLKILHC
# Several values for one entry are separate records, joined by “and”; a condition that tells them apart may be missing. Equal values may be shown once. The inconclusive results got no clear call from the source; some entries with a clear call stand among them for comparison. For part of these data: Potencies beside an inconclusive call are fits to weak or partial responses and may not hold up. Activity calls are given as the source filed them. Unless noted, calls come from the whole dose curve.
# Legend:
# [1] = target: 5-hydroxytryptamine receptor 2A (Homo sapiens) (UniProt P28223); assay: 5-hydroxytryptamine receptor 2A (HTR2A) small molecule antagonists, cell-based qHTS assay (AID 1963586); note: nearly all actives have a fitted effect of over 45% in size; for activity, negative = inhibition: % is set by controls: 0 for no effect and ±100 for the full control effect
# Summary of the method: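 Antagonist-mode intracellular calcium assay: DOI (4 nM) added after 5 min compound pre-incubation at room temperature to dye-loaded HTR2A-CHO cells. Fluorescence followed for 3 min, sampled every second.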
# [2] = target: Muscarinic acetylcholine receptor M1 (Homo sapiens) (UniProt P11229); assay: Cholinergic receptor muscarinic 1 (CHRM1) small molecule antagonists, cell-based qHTS assay (AID 1963588); note: nearly all actives have a fitted effect of over 40% in size
# Summary of the method: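 CHRM1-CHO calcium-flux assay, antagonist mode. Cells were seeded 18 h, dye-loaded 1 h at 37 C and given compound for 5 min at RT, then acetylcholine was added at 50nM. FDSS fluorescence was read 3 min; 15 concentrations, three runs.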
# [3] = cAMP Responsive Elements (CRE) small molecule agonists, cell-based qHTS assay (AID 1963590); conditions: CRE-bla HEK293T, beta-lactamase FRET ratio, 3 h; activation: at 92.4 µM (top of the series) unless noted; for activation: % is set by controls: 0 for no effect and ±100 for the full control effect
# Summary of the method: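 FRET-based beta-lactamase readout (LiveBLAzer B/G, 2 h RT) quantified CRE activation in HEK 293T CRE-bla cells after 3 h treatment with DMSO-dissolved compounds.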
# [4] = target: Beta-2 adrenergic receptor (Homo sapiens) (UniProt P07550); assay: Adrenergic beta2 receptor (ADRB2) small molecule agonists, cell-based qHTS assay (AID 1963593); conditions: CHO-ADRB2 cells, cAMP HTRF, 30 min; activation: at 92.4 µM (top of the series) unless noted;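 for activation: CHO cells stably overexpressing human ADRB2; % is set by controls: 0 for no effect and ±100 for the full control effect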
# Summary of the method: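 CHO cells stably over-expressing ADRB2 were plated overnight at 37C, then dosed with compounds plus a stimulation mix containing 100uM IBMX and 25uM Ro-20-1724 for 0.5hr at room temperature. cAMP was measured by HTRF competition, 1hr.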
# [5] = cAMP Responsive Elements (CRE) small molecule antagonists, cell-based qHTS assay (AID 1963591; active = well fitted inhibition curve with a large enough effect in the signal ratio in the repeat runs, not every such curve was filed as active; inconclusive = weak or mixed curves, or effect the other way; the % refers to the signal ratio; for activity change, negative = inhibition: % is set by controls: 0 for no effect and ±100 for the full control effect); conditions: CRE-bla HEK293T, beta-lactamase FRET ratio; activity change, negative = inhibition: at 92.4 µM (top of the series) unless noted
# Summary of the method: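 qHTS in CRE-bla HEK 293T cells: compound in DMSO, then 0.25 uM NKH477 (final), 3 h at 37 °C/5% CO2; beta-lactamase FRET read-out after 2 h substrate incubation.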
# [6] = target: D(2) dopamine receptor (Homo sapiens) (UniProt P14416); assay: Dopamine D2 receptor (DRD2) small molecule agonists, cell-based qHTS assay (AID 1963594); conditions: HEK293-DRD2 cAMP HTRF, agonist mode, 30 min; activation: at 92.4 µM (top of the series) unless noted; note: nearly all actives have a fitted effect of over 35% in size
# Summary of the method: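 HEK293 cells stably expressing DRD2 were cultured 24 h at 37 C, then given Ro20-1724 (0.1 mM final) and compounds for 10 min at room temperature. NKH477 (200nM) was then added for 30 min. cAMP was read by HTRF.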
# [7] = target: D(2) dopamine receptor (Homo sapiens) (UniProt P14416); assay: Dopamine D2 receptor (DRD2) small molecule antagonists, cell-based qHTS assay (AID 1963595; active = well fitted inhibition curve with a large enough effect in the signal ratio in the repeat runs, with a control signal flat; inconclusive = weak or mixed curves, or effect the other way; the % refers to the signal ratio); conditions: HEK293-DRD2 cAMP HTRF antagonist mode; activity change, negative = inhibition: at 92.4 µM (top of the series) unless noted
# Summary of the method: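 Readout: HTRF cAMP, cAMP-d2 competing with cellular cAMP for anti-cAMP cryptate, read after 1 h. Cells: DRD2-HEK293. Conditions: 0.1 mM Ro20-1724, 12 nM quinpirole, 200 nM NKH477, 30 min RT.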
# [8] = target: Beta-2 adrenergic receptor (Homo sapiens) (UniProt P07550); assay: Adrenergic beta2 receptor (ADRB2) small molecule antagonists, cell-based qHTS assay (AID 1963592); conditions: CHO-ADRB2 cells, isoproterenol-stimulated cAMP HTRF ratio, 0.5 h; activity change, negative = inhibition: at 92.4 µM (top of the series) unless noted; note: nearly all actives have a fitted effect of over 50% in size
# Summary of the method: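 Cells (CHO, stable ADRB2 overexpression) incubated 18-20hr at 37C; compounds added from DMSO; agonist mix (1nM isoproterenol, 100uM IBMX, 25uM Ro-20-1724) added; 0.5hr RT; d2-cAMP and anti-cAMP-cryptate added; 1hr RT; 665/615 nm read.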
# Potency is the fitted concentration of half-maximal effect.
structure (smiles),measurement,setting,value
CCCCOCCOC(=O)COc1cc(Cl)c(Cl)cc1Cl,Potency,[1],active: 9.42 µM
same,Potency,[2],"inconclusive: 16.8 µM [inhibitor, partial curve, poor fit]"
same,Potency,[3],"inconclusive: 30.6 µM [rising, partial curve, poor fit]"
same,activation,[4],inconclusive: 25.5%
O=[N+]([O-])c1cc(Cl)c(Cl)c(Cl)c1Cl,Potency,[1],"inconclusive: 0.374 µM [inhibitor, single point]"
same,Potency,[3],inconclusive: 60.9 µM [fluorescent]
same,activation,[4],inconclusive: -7.67%
Cc1cccn2c(=O)c(-c3nnn[nH]3)cnc12,"activity, negative = inhibition",[1],inactive: 5.08% [at 12.7 µM]
same,Potency,[3],"inconclusive: 13 µM [rising, partial curve, poor fit]"
same,activation,[4],inconclusive: 14.1% [at 19 µM]
CC(C)C/C=C(\C=O)c1ccccc1,Potency,[1],"inconclusive: 16.8 µM [inhibitor, partial curve, poor fit]"
same,Potency,[3],inactive
same,activation,[4],inconclusive: -18.9%
O=c1c(O)c(-c2ccc(O)cc2)oc2cc(O)cc(O)c12,Potency,[1],"inconclusive: 0.0118 µM [inhibitor, partial curve, poor fit]"
same,Potency,[3],"inconclusive: 8.6 µM [rising, full curve] and inconclusive: 11.6 µM [rising, full curve]"
same,Potency,[5],"inconclusive: 27.2 µM [activator, full curve, poor fit] and inconclusive: 15.3 µM [activator, partial curve]"
same,Potency,[4],inconclusive: 54.3 µM [inhibitor]
same,activation,[4],inconclusive: -9.16% [at 42.5 µM]
Cc1nnc(C(=O)NC(C)(C)c2nc(C(=O)NCc3ccc(F)cc3)c(O)c(=O)n2C)o1,Potency,[1],"inconclusive: 20.5 µM [inhibitor, single point]"
same,Potency,[3],"inconclusive: 33.5 µM [rising, partial curve, poor fit]"
same,Potency,[5],inactive
same,Potency,[4],inactive
same,activation,[6],inconclusive: 7.12% [at 42.5 µM]
O=C1OC(=O)c2c(Br)c(Br)c(Br)c(Br)c21,Potency,[1],inactive
same,Potency,[3],inactive
same,Potency,[4],inactive
CCCCN1CCCC1C(=O)Nc1c(C)cc(C)cc1C (centres undefined),Potency,[1],"inconclusive: 0.163 µM [inhibitor, full curve, poor fit]"
same,Potency,[3],"inconclusive: 33.5 µM [rising, partial curve, poor fit]"
same,Potency,[5],"inconclusive: 26.6 µM [activator, partial curve]"
same,activation,[4],inconclusive: -7.78% [at 42.5 µM]
CCCCCCCCCCCCCCCC[N+](C)(C)CCN(Cc1ccc(OC)cc1)c1ncccn1,Potency,[1],"inconclusive: 16.3 µM [inhibitor, partial curve, poor fit]"
same,Potency,[3],"inconclusive: 6.68 µM [rising, full curve, poor fit]"
same,Potency,[5],inconclusive: 33.5 µM
same,Potency,[4],"inconclusive: 29.8 µM [inhibitor, single point]"
same,Potency,[7],"inconclusive: 33.5 µM [inhibitor, single point]"
COc1ccc(C(=O)Nc2ccccc2)cc1[N+](=O)[O-],Potency,[1],"inconclusive: 9.49 µM [inhibitor, partial curve, poor fit]"
same,Potency,[3],"inconclusive: 15.5 µM [rising, full curve]"
same,"activity change, negative = inhibition",[5],inconclusive: 1.53%
same,Potency,[4],"inconclusive: 61.6 µM [inhibitor, partial curve, poor fit]"
same,Potency,[6],inactive
CCCCCCCCCC=O,Potency,[1],inactive
same,Potency,[3],"inconclusive: 48.6 µM [rising, partial curve]"
same,"activity change, negative = inhibition",[5],inconclusive: 0.46%
same,Potency,[4],inactive
O=[N+]([O-])c1ccc2nc[nH]c2c1,Potency,[1],inactive
same,Potency,[3],"inconclusive: 78.5 µM [rising, single point]"
same,activation,[4],inconclusive: -32.1%
O=C(CS)Nc1ccccc1,Potency,[1],"inconclusive: 0.0729 µM [inhibitor, full curve, poor fit]"
same,Potency,[3],inactive
same,activation,[4],inconclusive: -38.5% [at 42.5 µM]
same,"activity change, negative = inhibition",[7],inconclusive: 2.09% [at 42.5 µM]
CCCCOc1cc(C(=O)OCCN(CC)CC)ccc1N,Potency,[1],"inconclusive: 2.9 µM [inhibitor, full curve, poor fit]"
same,Potency,[5],inactive
CC12CCCC=C1C(=O)OC2=O (centres undefined),Potency,[1],"inconclusive: 0.149 µM [inhibitor, single point]"
same,Potency,[3],inactive
same,activation,[4],inconclusive: 2.1%
CC1=CCC2C(C1)C2(C)C (centres undefined),Potency,[1],inactive
same,Potency,[3],inactive
same,Potency,[8],active: 27.3 µM
same,Potency,[4],inconclusive: 30.6 µM [inhibitor]
same,Potency,[6],inconclusive: 48.6 µM
OCc1cccnc1,Potency,[1],"inconclusive: 2.05 µM [inhibitor, single point]"
same,Potency,[3],inactive
same,Potency,[5],inactive
same,Potency,[4],inactive
Cc1cccc(C)c1NC(=O)CN1CCN(CCCC(c2ccc(F)cc2)c2ccc(F)cc2)CC1,Potency,[1],active: 8.18 µM
same,Potency,[3],inactive
same,Potency,[5],"inconclusive: 3.35 µM [activator, full curve]"
same,"activity change, negative = inhibition",[7],inconclusive: -27.2% [at 42.5 µM]

# Looked up one by one from the list above (5):
structure (smiles),measurement,setting,value
Cc1nnc(C(=O)NC(C)(C)c2nc(C(=O)NCc3ccc(F)cc3)c(O)c(=O)n2C)o1,Potency,[3],"inconclusive: 33.5 µM [rising, partial curve, poor fit]"
OCc1cccnc1,Potency,[5],inactive
O=C1OC(=O)c2c(Br)c(Br)c(Br)c(Br)c21,Potency,[1],inactive
Cc1nnc(C(=O)NC(C)(C)c2nc(C(=O)NCc3ccc(F)cc3)c(O)c(=O)n2C)o1,Potency,[5],inactive
O=[N+]([O-])c1cc(Cl)c(Cl)c(Cl)c1Cl,activation,[4],inconclusive: -7.67%
